Data from article PMC3065485.
Results are given in words; binding and its absence hold for the method and conditions named. In cells and extracts the contact can be indirect. A yes stands for co-enrichment or nearness to the bait. Other partners may have been found.

The chains behind the UniProt entries cited, without tags or fusion partners.
UniProt P25655: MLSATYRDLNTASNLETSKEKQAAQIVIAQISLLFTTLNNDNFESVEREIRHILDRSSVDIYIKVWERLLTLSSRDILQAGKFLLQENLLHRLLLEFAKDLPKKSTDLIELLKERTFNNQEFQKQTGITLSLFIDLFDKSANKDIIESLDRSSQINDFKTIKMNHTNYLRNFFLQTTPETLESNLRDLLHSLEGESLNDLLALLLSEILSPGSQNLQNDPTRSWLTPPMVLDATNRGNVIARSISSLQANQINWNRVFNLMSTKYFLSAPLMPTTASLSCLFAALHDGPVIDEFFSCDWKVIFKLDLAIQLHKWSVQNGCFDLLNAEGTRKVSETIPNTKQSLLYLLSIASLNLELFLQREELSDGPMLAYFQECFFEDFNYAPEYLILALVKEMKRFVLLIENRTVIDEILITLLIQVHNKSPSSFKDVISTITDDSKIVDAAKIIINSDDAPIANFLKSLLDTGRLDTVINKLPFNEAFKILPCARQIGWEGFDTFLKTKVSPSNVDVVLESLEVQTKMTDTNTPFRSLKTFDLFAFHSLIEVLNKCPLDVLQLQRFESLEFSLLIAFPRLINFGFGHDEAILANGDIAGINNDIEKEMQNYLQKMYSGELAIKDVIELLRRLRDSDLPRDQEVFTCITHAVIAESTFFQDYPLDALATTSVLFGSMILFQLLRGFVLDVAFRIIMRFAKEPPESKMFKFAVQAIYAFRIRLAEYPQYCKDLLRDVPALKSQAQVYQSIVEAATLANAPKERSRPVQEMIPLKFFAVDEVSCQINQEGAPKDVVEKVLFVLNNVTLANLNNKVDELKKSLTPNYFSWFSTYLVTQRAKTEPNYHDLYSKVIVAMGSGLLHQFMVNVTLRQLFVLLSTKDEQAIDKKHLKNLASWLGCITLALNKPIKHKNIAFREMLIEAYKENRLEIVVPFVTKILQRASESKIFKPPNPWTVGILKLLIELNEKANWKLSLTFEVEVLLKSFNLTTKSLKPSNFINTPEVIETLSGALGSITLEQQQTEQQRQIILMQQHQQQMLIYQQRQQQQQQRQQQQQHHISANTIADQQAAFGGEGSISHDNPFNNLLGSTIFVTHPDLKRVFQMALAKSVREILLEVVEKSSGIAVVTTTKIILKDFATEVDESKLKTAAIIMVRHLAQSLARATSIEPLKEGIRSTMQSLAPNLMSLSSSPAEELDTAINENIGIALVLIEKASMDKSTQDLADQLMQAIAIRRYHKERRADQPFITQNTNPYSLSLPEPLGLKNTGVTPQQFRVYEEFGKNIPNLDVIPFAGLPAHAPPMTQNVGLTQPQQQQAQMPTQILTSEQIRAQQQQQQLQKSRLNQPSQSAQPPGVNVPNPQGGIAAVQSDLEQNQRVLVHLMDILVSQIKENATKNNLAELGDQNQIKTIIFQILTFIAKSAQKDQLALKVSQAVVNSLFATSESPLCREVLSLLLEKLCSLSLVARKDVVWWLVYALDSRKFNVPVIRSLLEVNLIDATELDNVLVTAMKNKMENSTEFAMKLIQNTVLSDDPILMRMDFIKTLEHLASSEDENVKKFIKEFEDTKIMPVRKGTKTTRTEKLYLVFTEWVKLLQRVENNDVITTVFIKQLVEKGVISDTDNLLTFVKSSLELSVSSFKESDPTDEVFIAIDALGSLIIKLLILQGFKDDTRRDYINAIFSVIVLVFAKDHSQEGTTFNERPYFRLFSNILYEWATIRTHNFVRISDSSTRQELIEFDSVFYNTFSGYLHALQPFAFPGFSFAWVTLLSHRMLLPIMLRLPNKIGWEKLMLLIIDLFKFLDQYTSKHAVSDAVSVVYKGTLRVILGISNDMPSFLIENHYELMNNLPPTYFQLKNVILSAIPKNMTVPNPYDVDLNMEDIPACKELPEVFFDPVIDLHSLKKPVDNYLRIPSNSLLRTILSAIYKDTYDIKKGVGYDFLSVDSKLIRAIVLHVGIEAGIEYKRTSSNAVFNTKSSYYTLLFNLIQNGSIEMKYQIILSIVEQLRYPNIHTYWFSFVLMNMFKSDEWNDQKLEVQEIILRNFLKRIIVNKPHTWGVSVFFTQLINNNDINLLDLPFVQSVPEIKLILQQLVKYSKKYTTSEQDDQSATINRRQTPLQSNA
UniProt Q02455: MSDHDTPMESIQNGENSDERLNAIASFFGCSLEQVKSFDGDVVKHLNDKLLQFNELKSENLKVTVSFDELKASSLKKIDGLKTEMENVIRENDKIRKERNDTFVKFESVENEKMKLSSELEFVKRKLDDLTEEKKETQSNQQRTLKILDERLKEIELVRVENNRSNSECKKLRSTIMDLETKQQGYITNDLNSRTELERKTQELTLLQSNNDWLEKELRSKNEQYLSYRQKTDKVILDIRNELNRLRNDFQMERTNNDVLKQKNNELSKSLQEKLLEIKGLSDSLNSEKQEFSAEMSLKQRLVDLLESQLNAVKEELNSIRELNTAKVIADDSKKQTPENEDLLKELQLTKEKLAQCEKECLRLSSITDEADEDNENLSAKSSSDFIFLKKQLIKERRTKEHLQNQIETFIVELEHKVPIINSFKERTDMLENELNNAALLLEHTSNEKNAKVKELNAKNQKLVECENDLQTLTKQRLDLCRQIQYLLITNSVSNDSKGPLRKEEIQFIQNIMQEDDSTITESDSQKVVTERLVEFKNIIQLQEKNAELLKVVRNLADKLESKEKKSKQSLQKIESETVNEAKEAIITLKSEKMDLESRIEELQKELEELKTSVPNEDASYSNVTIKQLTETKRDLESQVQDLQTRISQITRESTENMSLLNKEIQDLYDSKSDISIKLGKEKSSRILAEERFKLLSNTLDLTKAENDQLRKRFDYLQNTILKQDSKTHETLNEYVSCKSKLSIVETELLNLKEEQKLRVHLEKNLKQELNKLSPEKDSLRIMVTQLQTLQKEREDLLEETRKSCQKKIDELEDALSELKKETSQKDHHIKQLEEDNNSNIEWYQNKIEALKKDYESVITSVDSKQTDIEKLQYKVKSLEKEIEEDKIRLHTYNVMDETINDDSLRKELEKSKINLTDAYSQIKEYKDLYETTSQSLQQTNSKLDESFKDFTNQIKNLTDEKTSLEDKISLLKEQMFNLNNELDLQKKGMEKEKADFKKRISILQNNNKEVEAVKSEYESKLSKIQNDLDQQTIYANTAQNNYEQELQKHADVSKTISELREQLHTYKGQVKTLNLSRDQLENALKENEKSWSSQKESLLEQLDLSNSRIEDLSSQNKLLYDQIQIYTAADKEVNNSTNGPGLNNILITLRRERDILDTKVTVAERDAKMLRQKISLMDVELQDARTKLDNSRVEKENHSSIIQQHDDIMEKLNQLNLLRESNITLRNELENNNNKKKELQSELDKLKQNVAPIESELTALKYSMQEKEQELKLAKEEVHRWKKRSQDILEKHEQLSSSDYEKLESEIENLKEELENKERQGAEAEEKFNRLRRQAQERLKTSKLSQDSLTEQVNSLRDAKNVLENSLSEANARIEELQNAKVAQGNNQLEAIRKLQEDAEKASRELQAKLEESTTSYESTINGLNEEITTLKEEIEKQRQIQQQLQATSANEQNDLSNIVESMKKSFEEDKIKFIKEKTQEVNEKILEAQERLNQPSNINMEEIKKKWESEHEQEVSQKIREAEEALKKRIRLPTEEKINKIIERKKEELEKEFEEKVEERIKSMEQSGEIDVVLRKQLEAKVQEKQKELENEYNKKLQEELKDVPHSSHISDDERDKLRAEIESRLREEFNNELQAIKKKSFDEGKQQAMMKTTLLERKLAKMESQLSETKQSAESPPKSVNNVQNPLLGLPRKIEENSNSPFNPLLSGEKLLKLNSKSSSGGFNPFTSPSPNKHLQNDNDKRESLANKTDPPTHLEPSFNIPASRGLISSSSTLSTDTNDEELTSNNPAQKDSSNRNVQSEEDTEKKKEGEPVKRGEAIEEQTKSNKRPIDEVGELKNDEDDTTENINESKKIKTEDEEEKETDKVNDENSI
UniProt P40457: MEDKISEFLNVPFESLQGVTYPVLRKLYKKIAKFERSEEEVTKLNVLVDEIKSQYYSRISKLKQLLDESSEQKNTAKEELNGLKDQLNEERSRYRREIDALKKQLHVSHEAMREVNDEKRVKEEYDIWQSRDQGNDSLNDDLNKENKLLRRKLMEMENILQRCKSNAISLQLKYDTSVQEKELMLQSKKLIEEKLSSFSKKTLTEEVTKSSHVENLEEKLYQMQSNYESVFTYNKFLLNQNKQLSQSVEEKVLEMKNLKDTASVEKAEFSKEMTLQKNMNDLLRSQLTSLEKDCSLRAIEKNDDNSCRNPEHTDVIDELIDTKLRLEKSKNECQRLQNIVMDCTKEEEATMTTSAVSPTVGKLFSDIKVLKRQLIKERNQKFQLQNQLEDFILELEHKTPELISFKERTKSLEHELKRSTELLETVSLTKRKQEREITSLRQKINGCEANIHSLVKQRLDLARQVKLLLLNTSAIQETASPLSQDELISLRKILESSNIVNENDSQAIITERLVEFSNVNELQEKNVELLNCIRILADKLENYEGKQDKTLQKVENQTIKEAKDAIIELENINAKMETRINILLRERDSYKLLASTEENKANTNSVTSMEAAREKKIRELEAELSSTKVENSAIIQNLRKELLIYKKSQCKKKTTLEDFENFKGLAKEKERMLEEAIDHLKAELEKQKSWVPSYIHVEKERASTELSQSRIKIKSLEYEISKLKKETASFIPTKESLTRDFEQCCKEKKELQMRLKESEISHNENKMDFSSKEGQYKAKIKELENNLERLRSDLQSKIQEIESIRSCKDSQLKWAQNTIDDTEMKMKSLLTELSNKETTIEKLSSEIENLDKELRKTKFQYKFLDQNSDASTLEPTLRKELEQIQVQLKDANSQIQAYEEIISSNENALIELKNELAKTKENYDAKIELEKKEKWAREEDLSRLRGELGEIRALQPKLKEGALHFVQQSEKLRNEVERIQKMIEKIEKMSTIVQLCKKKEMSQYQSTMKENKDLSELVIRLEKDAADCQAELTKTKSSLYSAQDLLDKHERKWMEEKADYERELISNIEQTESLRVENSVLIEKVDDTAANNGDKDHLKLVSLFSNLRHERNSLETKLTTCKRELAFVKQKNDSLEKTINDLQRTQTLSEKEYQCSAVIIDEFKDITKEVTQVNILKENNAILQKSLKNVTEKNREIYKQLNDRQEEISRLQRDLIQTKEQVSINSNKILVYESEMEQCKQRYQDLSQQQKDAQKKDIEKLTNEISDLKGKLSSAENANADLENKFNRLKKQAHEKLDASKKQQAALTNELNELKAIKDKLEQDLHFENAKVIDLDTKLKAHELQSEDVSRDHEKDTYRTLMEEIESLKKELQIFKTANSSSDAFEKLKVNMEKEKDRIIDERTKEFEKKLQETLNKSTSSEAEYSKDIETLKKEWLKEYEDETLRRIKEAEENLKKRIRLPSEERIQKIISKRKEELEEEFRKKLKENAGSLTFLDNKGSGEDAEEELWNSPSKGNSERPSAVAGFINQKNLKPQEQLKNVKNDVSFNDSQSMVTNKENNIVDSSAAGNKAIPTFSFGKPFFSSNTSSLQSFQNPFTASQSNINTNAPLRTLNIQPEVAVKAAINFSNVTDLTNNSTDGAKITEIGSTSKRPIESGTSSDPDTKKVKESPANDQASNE
UniProt P39705: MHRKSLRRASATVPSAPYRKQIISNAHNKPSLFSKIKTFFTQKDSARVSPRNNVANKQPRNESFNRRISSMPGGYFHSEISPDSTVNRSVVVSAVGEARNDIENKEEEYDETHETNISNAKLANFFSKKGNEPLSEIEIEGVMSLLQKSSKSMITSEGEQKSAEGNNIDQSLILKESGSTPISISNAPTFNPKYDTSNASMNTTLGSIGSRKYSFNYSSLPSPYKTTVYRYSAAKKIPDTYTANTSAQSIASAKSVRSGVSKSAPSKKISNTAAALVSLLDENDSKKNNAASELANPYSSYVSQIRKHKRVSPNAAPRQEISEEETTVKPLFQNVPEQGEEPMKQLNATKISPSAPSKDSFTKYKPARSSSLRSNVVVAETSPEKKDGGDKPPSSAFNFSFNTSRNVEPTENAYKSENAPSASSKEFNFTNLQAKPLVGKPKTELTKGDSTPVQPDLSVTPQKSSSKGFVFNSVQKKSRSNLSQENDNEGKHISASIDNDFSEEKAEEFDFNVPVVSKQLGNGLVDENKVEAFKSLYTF
UniProt P10659: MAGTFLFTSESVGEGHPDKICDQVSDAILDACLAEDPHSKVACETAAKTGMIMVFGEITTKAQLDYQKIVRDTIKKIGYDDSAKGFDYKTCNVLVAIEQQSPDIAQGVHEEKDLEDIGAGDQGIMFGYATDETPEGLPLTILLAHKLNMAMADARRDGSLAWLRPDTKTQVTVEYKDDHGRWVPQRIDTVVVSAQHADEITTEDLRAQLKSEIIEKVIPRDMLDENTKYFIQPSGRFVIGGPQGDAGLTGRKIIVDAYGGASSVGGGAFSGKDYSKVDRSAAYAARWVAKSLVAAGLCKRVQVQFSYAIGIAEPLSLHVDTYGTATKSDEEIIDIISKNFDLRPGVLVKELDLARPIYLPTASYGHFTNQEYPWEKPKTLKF

T1: Caf130-TAP (S. cerevisiae) (UniProt P53280)
T1 sequence: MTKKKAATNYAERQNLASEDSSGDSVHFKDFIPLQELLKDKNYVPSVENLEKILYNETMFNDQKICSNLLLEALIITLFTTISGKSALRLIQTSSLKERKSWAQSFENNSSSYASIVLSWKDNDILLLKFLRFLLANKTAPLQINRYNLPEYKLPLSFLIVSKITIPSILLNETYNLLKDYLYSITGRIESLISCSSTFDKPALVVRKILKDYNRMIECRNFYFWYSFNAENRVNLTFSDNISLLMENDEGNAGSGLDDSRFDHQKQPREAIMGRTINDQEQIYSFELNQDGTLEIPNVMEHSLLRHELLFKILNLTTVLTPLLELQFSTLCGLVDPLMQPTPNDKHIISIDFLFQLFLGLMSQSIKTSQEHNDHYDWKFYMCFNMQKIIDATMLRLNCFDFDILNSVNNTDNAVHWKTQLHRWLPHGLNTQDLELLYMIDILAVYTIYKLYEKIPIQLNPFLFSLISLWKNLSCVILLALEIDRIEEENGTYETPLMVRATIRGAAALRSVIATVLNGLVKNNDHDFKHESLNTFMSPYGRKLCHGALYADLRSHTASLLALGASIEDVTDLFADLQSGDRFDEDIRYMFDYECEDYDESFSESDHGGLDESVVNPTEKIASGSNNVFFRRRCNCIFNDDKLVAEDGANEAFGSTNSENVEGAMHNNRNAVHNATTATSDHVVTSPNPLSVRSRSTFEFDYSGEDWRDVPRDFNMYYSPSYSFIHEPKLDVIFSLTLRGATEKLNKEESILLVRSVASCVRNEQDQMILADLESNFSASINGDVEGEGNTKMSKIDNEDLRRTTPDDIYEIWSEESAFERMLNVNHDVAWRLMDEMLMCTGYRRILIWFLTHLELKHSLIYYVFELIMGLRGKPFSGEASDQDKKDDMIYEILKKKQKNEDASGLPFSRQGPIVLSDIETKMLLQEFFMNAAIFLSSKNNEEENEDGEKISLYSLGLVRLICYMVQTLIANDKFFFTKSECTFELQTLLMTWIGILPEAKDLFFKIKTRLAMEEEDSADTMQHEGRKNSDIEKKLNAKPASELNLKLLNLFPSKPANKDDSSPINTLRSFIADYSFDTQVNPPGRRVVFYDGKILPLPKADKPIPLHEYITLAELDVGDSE

T2: Caf40-TAP (S. cerevisiae) (UniProt P53829)
T2 sequence: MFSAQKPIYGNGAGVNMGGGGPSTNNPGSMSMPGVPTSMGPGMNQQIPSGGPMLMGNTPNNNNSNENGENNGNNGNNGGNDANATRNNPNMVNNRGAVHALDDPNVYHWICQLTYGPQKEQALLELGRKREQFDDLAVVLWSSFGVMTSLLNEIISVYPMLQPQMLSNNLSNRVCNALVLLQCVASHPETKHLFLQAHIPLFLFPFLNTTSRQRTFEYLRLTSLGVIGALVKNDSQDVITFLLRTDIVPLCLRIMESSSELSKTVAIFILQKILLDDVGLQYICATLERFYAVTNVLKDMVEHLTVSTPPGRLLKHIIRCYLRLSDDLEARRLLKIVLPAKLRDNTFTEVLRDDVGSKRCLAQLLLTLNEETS

T3: Not2-TAP (S. cerevisiae) (UniProt P06100)
T3 sequence: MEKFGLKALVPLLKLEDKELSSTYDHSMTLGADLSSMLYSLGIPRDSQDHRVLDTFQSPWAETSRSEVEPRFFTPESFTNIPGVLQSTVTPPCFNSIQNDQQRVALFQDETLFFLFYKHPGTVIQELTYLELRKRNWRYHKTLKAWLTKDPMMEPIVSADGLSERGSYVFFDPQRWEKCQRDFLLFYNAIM

T4: Not4-TAP (S. cerevisiae) (UniProt P34909)
T4 sequence: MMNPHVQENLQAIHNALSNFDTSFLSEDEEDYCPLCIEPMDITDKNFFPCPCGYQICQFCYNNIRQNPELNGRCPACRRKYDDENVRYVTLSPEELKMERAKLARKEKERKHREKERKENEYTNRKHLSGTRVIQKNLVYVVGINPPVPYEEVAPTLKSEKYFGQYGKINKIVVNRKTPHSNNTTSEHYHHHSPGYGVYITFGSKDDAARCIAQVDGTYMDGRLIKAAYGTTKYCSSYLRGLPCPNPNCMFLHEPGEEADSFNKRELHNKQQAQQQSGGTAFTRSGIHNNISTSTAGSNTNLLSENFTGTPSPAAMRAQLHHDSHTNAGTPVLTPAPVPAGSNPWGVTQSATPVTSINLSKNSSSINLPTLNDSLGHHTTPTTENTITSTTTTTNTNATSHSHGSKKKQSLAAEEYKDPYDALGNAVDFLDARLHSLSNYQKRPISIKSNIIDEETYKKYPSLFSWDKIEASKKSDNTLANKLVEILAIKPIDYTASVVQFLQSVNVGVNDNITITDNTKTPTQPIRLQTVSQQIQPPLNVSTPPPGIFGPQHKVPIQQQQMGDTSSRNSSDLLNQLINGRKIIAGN

T5: Not5-TAP (S. cerevisiae) (UniProt Q12514)
T5 sequence: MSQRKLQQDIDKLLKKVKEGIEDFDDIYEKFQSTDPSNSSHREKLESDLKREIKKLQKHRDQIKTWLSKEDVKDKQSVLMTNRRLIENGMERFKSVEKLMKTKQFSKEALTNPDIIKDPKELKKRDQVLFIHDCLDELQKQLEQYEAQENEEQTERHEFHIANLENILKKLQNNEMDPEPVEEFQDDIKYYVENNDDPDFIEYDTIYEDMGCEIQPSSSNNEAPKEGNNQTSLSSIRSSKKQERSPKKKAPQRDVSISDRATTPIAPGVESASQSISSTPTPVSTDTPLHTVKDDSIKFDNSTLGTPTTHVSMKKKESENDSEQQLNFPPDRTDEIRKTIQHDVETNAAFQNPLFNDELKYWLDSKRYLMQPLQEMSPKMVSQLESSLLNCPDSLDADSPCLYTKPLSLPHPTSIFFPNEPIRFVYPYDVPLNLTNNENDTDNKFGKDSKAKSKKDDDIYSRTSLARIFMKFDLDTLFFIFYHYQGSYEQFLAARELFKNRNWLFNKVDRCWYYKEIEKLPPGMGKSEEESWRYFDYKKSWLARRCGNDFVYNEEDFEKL

T6: Not3-TAP (S. cerevisiae) (UniProt P06102)
T6 sequence: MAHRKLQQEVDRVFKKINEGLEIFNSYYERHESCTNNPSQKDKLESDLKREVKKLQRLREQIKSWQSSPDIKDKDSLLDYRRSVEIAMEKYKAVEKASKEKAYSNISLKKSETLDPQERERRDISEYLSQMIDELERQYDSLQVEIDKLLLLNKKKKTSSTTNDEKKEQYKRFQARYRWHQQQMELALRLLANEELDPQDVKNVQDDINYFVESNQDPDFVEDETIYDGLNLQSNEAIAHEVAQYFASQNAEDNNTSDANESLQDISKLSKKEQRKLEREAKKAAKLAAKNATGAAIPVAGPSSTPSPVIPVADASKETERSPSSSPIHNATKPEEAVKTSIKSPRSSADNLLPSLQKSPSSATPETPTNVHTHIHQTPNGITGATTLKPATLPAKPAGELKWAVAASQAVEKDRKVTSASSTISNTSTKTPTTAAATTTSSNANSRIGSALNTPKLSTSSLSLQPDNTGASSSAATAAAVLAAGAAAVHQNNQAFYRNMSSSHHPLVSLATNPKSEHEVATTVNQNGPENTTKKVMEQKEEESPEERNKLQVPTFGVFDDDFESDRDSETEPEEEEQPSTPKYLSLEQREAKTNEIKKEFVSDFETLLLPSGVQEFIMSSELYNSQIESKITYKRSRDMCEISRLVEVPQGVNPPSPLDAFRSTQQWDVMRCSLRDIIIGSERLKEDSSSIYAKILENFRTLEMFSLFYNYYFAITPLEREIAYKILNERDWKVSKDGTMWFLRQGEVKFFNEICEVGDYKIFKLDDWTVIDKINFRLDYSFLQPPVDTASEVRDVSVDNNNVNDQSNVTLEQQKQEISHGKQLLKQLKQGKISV


What was measured:
[1] = biological target: T1, Caf130-TAP (S. cerevisiae); experiment: affinity purification with mass spectrometry; tandem affinity purification of the TAP-tagged Ccr4-Not subunit from yeast whole cell extract (wild type or caf130Δ, not3Δ, caf40Δ backgrounds); SDS-PAGE, Coomassie bands excised, MALDI-TOF, MASCOT search
[2] = biological target: T2, Caf40-TAP (S. cerevisiae); experiment: as above
Not1-TAP (S. cerevisiae) = Not1-TAP (S. cerevisiae) (UniProt P25655); experiment: as above
Not2-TAP (S. cerevisiae) [3] = biological target: T3, Not2-TAP (S. cerevisiae); experiment: as above
Not4-TAP (S. cerevisiae) = biological target: T4, Not4-TAP (S. cerevisiae); experiment: as above
Not5-TAP (S. cerevisiae) = biological target: T5, Not5-TAP (S. cerevisiae); experiment: affinity purification with mass spectrometry; tandem affinity purification of the TAP-tagged Ccr4-Not subunit from caf130Δ yeast whole cell extract; excised gel bands analysed by NanoLC-ESI-MS/MS, Mascot and Scaffold
Not2-TAP (S. cerevisiae) [4] = biological target: T3, Not2-TAP (S. cerevisiae); experiment: as above
Not3-TAP (S. cerevisiae) = biological target: T6, Not3-TAP (S. cerevisiae); experiment: affinity purification with mass spectrometry; tandem affinity purification of the TAP-tagged Ccr4-Not subunit from yeast whole cell extract (wild type or caf130Δ, not3Δ, caf40Δ backgrounds); SDS-PAGE, Coomassie bands excised, MALDI-TOF, MASCOT search

Row | Molecule | binding [2] | binding (Not2-TAP (S. cerevisiae) [3]) | binding (Not4-TAP (S. cerevisiae)) | also measured
1 | Mlp1 (from UniProt Q02455 1-1875) | binds | binds |  | binding [1]: binds; binding (Not1-TAP (S. cerevisiae)): binds
2 | Mlp2 (from UniProt P40457 1-1679) | binds |  | binds | binding (Not5-TAP (S. cerevisiae)): binds
3 | Nup2 (from UniProt P32499 1-720) |  |  |  | binding (Not2-TAP (S. cerevisiae) [4]): binds
4 | Nup60 (from UniProt P39705 1-539) | binds |  |  | 
5 | Sam1 (from UniProt P10659 1-382) (enzyme) | binds | binds | binds | 
6 | Sam2 (from UniProt P19358 1-384) (enzyme) | binds |  | binds | 
7 | Mft1 (protein, UniProt P33441 1-392) MPLSQKQIDQVRTKVHYSEVDTPFNKYLDILGKVTKLTGSIINGTLSNDDSKIEKLTEQNISQLKESAHLRFLDLQSSIDTKKVADENWETCQQETLAKLENLKDKLPDIKSIHSKLLLRIGKLQGLYDSVQVINREVEGLSEGRTSLVVTRAEWEKELGTDLVKFLIEKNYLKLVDPGLKKDSSEERYRIYDDFSKGPKELESINASMKSDIENVRQEVSSYKEKWLRDAEIFGKITSIFKEELLKRDGLLNEAEGDNIDEDYESDEDEERKERFKRQRSMVEVNTIENVDEKEESDHEYDDQEDEENEEEDDMEVDVEDIKEDNEVDGESSQQEDNSRQGNNEETDKETGVIEEPDAVNDAEEADSDHSSRKLGGTTSDFSASSSVEEVK | binds | binds |  | binding (Not3-TAP (S. cerevisiae)): binds
